No constants are given. Whether binding was seen depends on the method and setting. In cells and extracts the contact can be indirect. Some binding calls cover weakened binding; strength is not graded here. Tags and fused reporters may be left off the sequences shown.
T1: mKGN–MC–FLAG–CARF (human), Q9NXV6
T1 chain: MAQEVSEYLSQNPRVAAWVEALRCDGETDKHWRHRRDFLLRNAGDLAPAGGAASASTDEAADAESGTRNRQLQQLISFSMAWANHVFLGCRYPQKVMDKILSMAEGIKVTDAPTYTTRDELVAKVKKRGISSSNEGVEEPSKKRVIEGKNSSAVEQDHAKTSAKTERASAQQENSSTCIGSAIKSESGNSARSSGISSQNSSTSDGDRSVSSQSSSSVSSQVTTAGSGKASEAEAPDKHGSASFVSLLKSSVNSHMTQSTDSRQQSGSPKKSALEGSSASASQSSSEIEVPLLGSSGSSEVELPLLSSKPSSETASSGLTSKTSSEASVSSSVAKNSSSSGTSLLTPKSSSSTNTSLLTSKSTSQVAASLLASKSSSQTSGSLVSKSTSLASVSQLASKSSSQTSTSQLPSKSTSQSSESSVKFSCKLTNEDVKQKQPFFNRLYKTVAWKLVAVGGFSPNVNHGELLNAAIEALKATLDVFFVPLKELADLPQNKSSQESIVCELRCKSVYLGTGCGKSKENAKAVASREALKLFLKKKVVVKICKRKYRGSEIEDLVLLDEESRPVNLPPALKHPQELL

T2: mKGC–MC–FLAG–CARF (human), Q9NXV6
T2 chain: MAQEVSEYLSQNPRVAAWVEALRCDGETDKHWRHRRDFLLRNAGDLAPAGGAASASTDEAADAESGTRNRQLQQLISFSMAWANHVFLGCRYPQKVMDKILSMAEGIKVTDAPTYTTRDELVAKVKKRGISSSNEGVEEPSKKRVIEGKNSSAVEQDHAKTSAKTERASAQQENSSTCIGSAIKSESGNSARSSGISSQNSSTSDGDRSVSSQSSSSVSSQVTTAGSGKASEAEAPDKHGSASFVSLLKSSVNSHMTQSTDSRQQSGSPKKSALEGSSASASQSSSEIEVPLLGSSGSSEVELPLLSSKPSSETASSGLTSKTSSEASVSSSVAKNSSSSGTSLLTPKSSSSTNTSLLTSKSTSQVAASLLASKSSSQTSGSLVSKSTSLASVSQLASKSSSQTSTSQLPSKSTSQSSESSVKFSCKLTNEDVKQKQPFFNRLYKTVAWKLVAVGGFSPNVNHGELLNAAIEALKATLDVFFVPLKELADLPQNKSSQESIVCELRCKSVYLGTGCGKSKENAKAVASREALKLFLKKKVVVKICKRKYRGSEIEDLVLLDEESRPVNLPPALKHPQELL


Columns and labels:
[1] = molecular target: T1, mKGN–MC–FLAG–CARF (human), Q9NXV6; assay: split reporter; mKG reporter system (MBL) in Flp-In T-Rex 293 cells transfected with phmKGN–MC–FLAG–CARF and phmKGC–MC–XRN2; fixed 48 h after transfection; fluorescence microscopy; conditions: remark: other sources report otherwise
[2] = molecular target: T2, mKGC–MC–FLAG–CARF (human), Q9NXV6; assay: split reporter; mKG reporter system, the fragments exchanged (phmKGC-MC-FLAG-CARF and phmKGN-MC-XRN2); data not shown; conditions: remark: other sources report otherwise

Row | binding [1] | binding [2] | Binder
1 | binds |  | mKGC–MC–XRN2, Q9H0D6-1 1-950 (enzyme) MGVPAFFRWLSRKYPSIIVNCVEEKPKECNGVKIPVDASKPNPNDVEFDNLYLDMNGIIHPCTHPEDKPAPKNEDEMMVAIFEYIDRLFSIVRPRRLLYMAIDGVAPRAKMNQQRSRRFRASKEGMEAAVEKQRVREEILAKGGFLPPEEIKERFDSNCITPGTEFMDNLAKCLRYYIADRLNNDPGWKNLTVILSDASAPGEGEHKIMDYIRRQRAQPNHDPNTHHCLCGADADLIMLGLATHEPNFTIIREEFKPNKPKPCGLCNQFGHEVKDCEGLPREKKGKHDELADSLPCAEGEFIFLRLNVLREYLERELTMASLPFTFDVERSIDDWVFMCFFVGNDFLPHLPSLEIRENAIDRLVNIYKNVVHKTGGYLTESGYVNLQRVQMIMLAVGEVEDSIFKKRKDDEDSFRRRQKEKRKRMKRDQPAFTPSGILTPHALGSRNSPGSQVASNPRQAAYEMRMQNNSSPSISPNTSFTSDGSPSPLGGIKRKAEDSDSEPEPEDNVRLWEAGWKQRYYKNKFDVDAADEKFRRKVVQSYVEGLCWVLRYYYQGCASWKWYYPFHYAPFASDFEGIADMPSDFEKGTKPFKPLEQLMGVFPAASGNFLPPSWRKLMSDPDSSIIDFYPEDFAIDLNGKKYAWQGVALLPFVDERRLRAALEEVYPDLTPEETRRNSLGGDVLFVGKHHPLHDFILELYQTGSTEPVEVPPELCHGIQGKFSLDEEAILPDQIVCSPVPMLRDLTQNTVVSINFKDPQFAEDYIFKAVMLPGARKPAAVLKPSDWEKSSNGRQWKPQLGFNRDRRPVHLDQAAFRTLGHVMPRGSGTGIYSNAAPPPVTYQGNLYRPLLRGQAQIPKLMSNMRPQDSWRGPPPLFQQQRFDRGVGAEPLLPWNRMLQTQNAAFQPNQYQMLAGPGGYPPRRDDRGGRQGYPREGRKYPLPPPSGRYNWN
2 |  | binds | mKGN–MC–XRN2, Q9H0D6-1 1-950 (enzyme) MGVPAFFRWLSRKYPSIIVNCVEEKPKECNGVKIPVDASKPNPNDVEFDNLYLDMNGIIHPCTHPEDKPAPKNEDEMMVAIFEYIDRLFSIVRPRRLLYMAIDGVAPRAKMNQQRSRRFRASKEGMEAAVEKQRVREEILAKGGFLPPEEIKERFDSNCITPGTEFMDNLAKCLRYYIADRLNNDPGWKNLTVILSDASAPGEGEHKIMDYIRRQRAQPNHDPNTHHCLCGADADLIMLGLATHEPNFTIIREEFKPNKPKPCGLCNQFGHEVKDCEGLPREKKGKHDELADSLPCAEGEFIFLRLNVLREYLERELTMASLPFTFDVERSIDDWVFMCFFVGNDFLPHLPSLEIRENAIDRLVNIYKNVVHKTGGYLTESGYVNLQRVQMIMLAVGEVEDSIFKKRKDDEDSFRRRQKEKRKRMKRDQPAFTPSGILTPHALGSRNSPGSQVASNPRQAAYEMRMQNNSSPSISPNTSFTSDGSPSPLGGIKRKAEDSDSEPEPEDNVRLWEAGWKQRYYKNKFDVDAADEKFRRKVVQSYVEGLCWVLRYYYQGCASWKWYYPFHYAPFASDFEGIADMPSDFEKGTKPFKPLEQLMGVFPAASGNFLPPSWRKLMSDPDSSIIDFYPEDFAIDLNGKKYAWQGVALLPFVDERRLRAALEEVYPDLTPEETRRNSLGGDVLFVGKHHPLHDFILELYQTGSTEPVEVPPELCHGIQGKFSLDEEAILPDQIVCSPVPMLRDLTQNTVVSINFKDPQFAEDYIFKAVMLPGARKPAAVLKPSDWEKSSNGRQWKPQLGFNRDRRPVHLDQAAFRTLGHVMPRGSGTGIYSNAAPPPVTYQGNLYRPLLRGQAQIPKLMSNMRPQDSWRGPPPLFQQQRFDRGVGAEPLLPWNRMLQTQNAAFQPNQYQMLAGPGGYPPRRDDRGGRQGYPREGRKYPLPPPSGRYNWN
